Measurements: US20260274933A1 (Innovent, published 2026)
These are yes or no findings as the source states them, for the method shown. Some entries that bind do so weakly or less than the wild type.

By UniProt entry, the sequences of proteins in these tests, tags left out. Where a name states a change or a piece, a line headed by the entry shows the natural chain unless it says otherwise. Chains listed by the source or under a name are the forms on record and can include a tag or linker. Residues count along the entry.
UniProt O15123: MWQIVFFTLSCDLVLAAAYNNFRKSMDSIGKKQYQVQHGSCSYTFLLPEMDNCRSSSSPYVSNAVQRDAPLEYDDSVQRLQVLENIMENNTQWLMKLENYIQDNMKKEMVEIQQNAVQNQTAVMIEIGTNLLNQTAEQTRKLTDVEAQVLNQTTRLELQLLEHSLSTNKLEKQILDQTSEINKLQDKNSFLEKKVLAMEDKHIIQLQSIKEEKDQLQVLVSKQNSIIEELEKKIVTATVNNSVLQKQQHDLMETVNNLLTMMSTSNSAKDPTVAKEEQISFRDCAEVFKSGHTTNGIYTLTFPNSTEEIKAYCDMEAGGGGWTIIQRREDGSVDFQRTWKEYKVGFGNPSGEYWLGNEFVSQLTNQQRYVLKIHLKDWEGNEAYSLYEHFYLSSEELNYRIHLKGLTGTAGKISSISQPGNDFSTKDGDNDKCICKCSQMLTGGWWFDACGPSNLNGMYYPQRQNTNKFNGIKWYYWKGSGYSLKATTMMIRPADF
hAng2-Fc (Beijing Sino Biological, Catalog No. 10691-H02H): residues 19-496 of O15123
hAng2-biotin (R&D, Catalog No. BT623B/CF): residues 68-496 of O15123
biotin-labeled VEGF A165 (ACRO, Catalog No. VE5-H8210) (P15692, form named): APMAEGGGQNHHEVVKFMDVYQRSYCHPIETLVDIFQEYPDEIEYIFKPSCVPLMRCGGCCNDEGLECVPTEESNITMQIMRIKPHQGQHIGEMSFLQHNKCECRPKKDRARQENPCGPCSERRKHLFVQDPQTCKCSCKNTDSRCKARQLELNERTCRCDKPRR

B1: LA24C11.10 (Ang2 VHH) (VHH)
VHH: EVQLLESGGGLVQPGGSLRLSCAASGFALDYYAIGWFRQAPGKGLEGVSCISSGEGSTYYADSVKGRFTISRDNSKNTVYLQMNSLRAEDTAVYYCATDSRGDDVACEGLRRNEYDYWGQGTLVTVSS
notes: Humanized anti-Ang2 VHH; also called hz24C11.10; LA24C11.0
B2: IgG (antibody, V domains shown)
VH: EVRLLESGGGLVQPGGSLRLSCAASGFTFSNYAMGWVRQAPGKGLEWVSAISGSGGSTYYADSVKGRFTTSRDDSKNALYLQMNSLRAEDTAVYYCARGGPGWYAADVWGQGTTVTVSS
VL: DIQMTQSPSSLSASVGDRVTITCRASQSISSYLNWYQQKPGKAPKLLIYAASSLQSGVPSRFSGSGSGTDFTLTISSLQPEDFATYYCQQADLPAFAFGGGTKVEIKR
notes: also called Negative control IgG

Tests used:
[1] = target: hAng2-biotin (R&D, Catalog No. BT623B/CF) (human) (UniProt O15123); experiment: blocking ELISA: Tie2-Fc coated, binding of hAng2-biotin blocked
[2] = target: hAng2-biotin (R&D, Catalog No. BT623B/CF) (human) (UniProt O15123); experiment: condition: log about 0.7 (ug/ml), i.e. about 5 ug/ml; blocking ELISA: Tie2-Fc coated, binding of hAng2-biotin
[3] = target: hAng2-biotin (R&D, Catalog No. BT623B/CF) (human) (UniProt O15123); experiment: blocking ELISA: hTie2 coated, binding of biotinylated hAng2
[4] = target: biotin-labeled VEGF A165 (ACRO, Catalog No. VE5-H8210) (human) (UniProt P15692); experiment: condition: log about 2.2 (ug/ml), i.e. about 150 ug/ml; blocking ELISA: biotin VEGF A165 on streptavidin, binding of VEGFR-Fc
[5] = target: hAng2-Fc (Beijing Sino Biological, Catalog No. 10691-H02H) (human) (UniProt O15123); experiment: flow cytometry blocking: binding of hAng2-Fc to Tie2 on 293-Tie2 cells

| Binder | binding [1] | binding [2] | binding [3] | binding [4] | binding [5] |
| --- | --- | --- | --- | --- | --- |
| B1 | binds |  |  |  |  |
| B2 |  | no binding | no binding (tested: log about 2.5 (nM), i.e. about 300 nM) | no binding | no binding (tested: log about 2.6 (nM), i.e. about 400 nM) |
